# Assay results taken from PubChem BioAssay AID330 (DTP/NCI, 2004).
# The list does not hold the whole screen: it is rich in T/C values a quarter to a half above the control, in often repeated tests (any T/C) and in doses without a T/C. Further doses and runs are listed elsewhere. T/C is the treated group as % of the vehicle group. Some entries give survivors of the animals treated and no T/C: the source files T/C as zero there, which appears to mark a toxic dose or a test without result, not a measured value. Some survivor counts are full or nearly so, which does not show that the dose was tolerated: survival well below the control is almost never listed, so the zero probably covers shortened survival too. Counts of survivors are from the toxicity check (mostly the fifth day) where no day follows; animals may have died later. Schedules are NCI's codes, read here as Q, the interval in days (D) or hours (H), X, the number of doses. Some doses were run more than once; the values are given in rising order. Some structures stand for samples that the source files as different forms (salt, stereo form or complex); doses refer to the form tested. For survival time, this PubChem deposit counts one and a half times the control or more as active, and values a quarter to a half above the control carry no call in these data; other NCI protocols may use other cut-offs. Signs of the kind (2×) say how often a value occurs here. Some T/C values carry the count of animals alive at the toxicity check (mostly the fifth day); where none is given, no animal had died by that day.
# Tested on: P388 leukemia ip, CD2F1 mice, survival T/C
# Assay: NCI In Vivo Anticancer Drug Screen. Data for tumor model P388 Leukemia (intraperitoneal) in CD2F1 (CDF1) mice
# Settings: T/C endpoint: median survival time, higher T/C = longer survival
# [1] = dose: 6.25 mg/kg/injection, schedule: Q01DX009 (ip), vehicle: saline with Tween-80
# [2] = dose: 100.0 mg/kg/injection, schedule: Q01DX009 (ip), vehicle: saline with Tween-80
# [3] = dose: 200.0 mg/kg/injection, schedule: Q01DX009 (ip), vehicle: saline with Tween-80
# [4] = dose: 200.0 mg/kg/injection, schedule: Q01DX009 (ip), vehicle: saline
# [5] = dose: 200.0 mg/kg/injection, schedule: Q01DX001 (ip), vehicle: saline with Tween-80
# [6] = dose: 400.0 mg/kg/injection, schedule: Q01DX001 (ip), vehicle: saline with Tween-80
# [7] = dose: 200.0 mg/kg/injection, schedule: Q01DX005 (ip), vehicle: saline with Tween-80
# [8] = dose: 200.0 mg/kg/injection, schedule: Q01DX009 (ip), vehicle: Klucel (hydroxypropylcellulose) (HPC)
# [9] = dose: 25.0 mg/kg/injection, schedule: Q01DX009 (ip), vehicle: saline with Tween-80
# [10] = dose: 50.0 mg/kg/injection, schedule: Q01DX009 (ip), vehicle: saline with Tween-80
# [11] = dose: 1.56 mg/kg/injection, schedule: Q01DX009 (ip), vehicle: Klucel (hydroxypropylcellulose) (HPC)
# [12] = dose: 3.12 mg/kg/injection, schedule: Q01DX009 (ip), vehicle: Klucel (hydroxypropylcellulose) (HPC)
# [13] = dose: 6.25 mg/kg/injection, schedule: Q01DX009 (ip), vehicle: Klucel (hydroxypropylcellulose) (HPC)
# [14] = dose: 12.5 mg/kg/injection, schedule: Q01DX009 (ip), vehicle: Klucel (hydroxypropylcellulose) (HPC)
# [15] = dose: 25.0 mg/kg/injection, schedule: Q01DX009 (ip), vehicle: Klucel (hydroxypropylcellulose) (HPC)
structure (smiles),measurement,setting,value
O=C(O)c1ccccc1N=Nc1ccc(N(CCCl)CCCl)cc1,T/C,[1],140 % of control
same,T/C,"dose: 6.25 mg/kg/injection, schedule: Q04DX003 (ip), vehicle: Klucel (hydroxypropylcellulose) (HPC)",137 % of control
same,T/C,"dose: 12.5 mg/kg/injection, schedule: Q04DX003 (ip), vehicle: Klucel (hydroxypropylcellulose) (HPC)",147 % of control
same,survivor count,"dose: 25.0 mg/kg/injection, schedule: Q04DX003 (ip), vehicle: Klucel (hydroxypropylcellulose) (HPC)",6 of 6
same,survivor count,"dose: 50.0 mg/kg/injection, schedule: Q04DX003 (ip), vehicle: Klucel (hydroxypropylcellulose) (HPC)",0 of 6
same,survivor count,[2],6 of 6
same,survivor count,"dose: 100.0 mg/kg/injection, schedule: Q04DX003 (ip), vehicle: Klucel (hydroxypropylcellulose) (HPC)",3 of 6
same,survivor count,[3],6 of 6
same,survivor count,"dose: 200.0 mg/kg/injection, schedule: Q04DX003 (ip), vehicle: Klucel (hydroxypropylcellulose) (HPC)",0 of 6
same,survivor count,"dose: 400.0 mg/kg/injection, schedule: Q04DX003 (ip), vehicle: Klucel (hydroxypropylcellulose) (HPC)",0 of 6
Cc1ccc(C)n1-c1ccsc1C(=O)NNC(=O)C(Cl)Cl,survivor count,"dose: 60.0 mg/kg/injection, schedule: Q01DX005 (ip), vehicle: Klucel (hydroxypropylcellulose) (HPC)",0 of 6
same,survivor count,"dose: 120.0 mg/kg/injection, schedule: Q01DX005 (ip), vehicle: Klucel (hydroxypropylcellulose) (HPC)",0 of 6
same,survivor count,"dose: 240.0 mg/kg/injection, schedule: Q01DX005 (ip), vehicle: Klucel (hydroxypropylcellulose) (HPC)",0 of 6
CC1(C)NC(=S)N(O)C1(C)C,survivor count,[4],1 of 6
C[n+]1ccc(-c2nc(-c3cc[n+](C)cc3)nc(-c3cc[n+](C)cc3)n2)cc1,survivor count,"dose: 100.0 mg/kg/injection, schedule: Q01DX001 (ip), vehicle: saline with Tween-80",3 of 6
same,survivor count,[5],0 of 6
same,survivor count,[6],0 of 6
CC(/C=C/c1ccccc1)=N\NS(=O)(=O)c1ccc(C)cc1,survivor count,[7],6 of 6
C=CCOC(CCC)OCC=C,survivor count,[8],0 of 6
CC(C)(c1ccc(OCOC(=O)NN)cc1)c1ccc(OCOC(=O)NN)cc1,survivor count,[3],3 of 6
COc1ccc(Cl)cc1Cn1ccnc1,survivor count,"dose: 240.0 mg/kg/injection, schedule: Q01DX005 (ip), vehicle: saline with Tween-80",0 of 6
[Cu+2].[NH-]CC1CCCC[N-]1.[NH-]CC1CCCC[N-]1.[O-][Cl+3]([O-])([O-])O (stereo unspecified),survivor count,[9],1 of 6
same,survivor count,[10],0 of 6
same,survivor count,[2],0 of 6
same,survivor count,[3],0 of 6
CCN(CC)c1ccc2c(cc1=O)[C@@H](NC(C)=O)CCc1cc(OC)c(OC)c(OC)c1-2,T/C,"dose: 0.78 mg/kg/injection, schedule: Q01DX009 (ip), vehicle: Klucel (hydroxypropylcellulose) (HPC)","106, 110, 127, 133, 140 % of control"
same,T/C,[11],"117, 118, 136, 149, 160 % of control"
same,T/C,[12],"117, 138, 190, 216 % of control"
same,T/C,[13],95 [5 of 6 alive] and 117 % of control [5 of 6 alive]
same,survivor count,[13],"4 of 6, 5 of 6, 6 of 6"
same,survivor count,[14],0 of 6 and 3 of 6
same,survivor count,[15],0 of 6
O=C(N/N=C/c1cccc2ccccc12)c1cccnc1,survivor count,"dose: 25.0 mg/kg/injection, schedule: Q01DX009 (ip), vehicle: saline",6 of 6
same,survivor count,"dose: 50.0 mg/kg/injection, schedule: Q01DX009 (ip), vehicle: saline",6 of 6
CN1CCC(CO)C1 (stereo unspecified),survivor count,"dose: 100.0 mg/kg/injection, schedule: Q01DX009 (ip), vehicle: water",5 of 6
same,survivor count,"dose: 200.0 mg/kg/injection, schedule: Q01DX009 (ip), vehicle: water",2 of 6
Cn1c2ccc([N+](=O)[O-])cc2c(=O)c2c(O)cc3c(c21)C=CC(C)(C)O3,survivor count,[5],6 of 6
same,survivor count,[6],6 of 6
Cc1ccc(C#N)s1,survivor count,[10],0 of 6
CN(c1ccccc1)c1cc2nc3ccccc3nc2cc1O,survivor count,[4],6 of 6
CC1(C)CC([P+](c2ccccc2)(c2ccccc2)c2ccccc2)=NN1,T/C,"dose: 3.12 mg/kg/injection, schedule: Q01DX009 (ip), vehicle: saline with Tween-80",130 % of control (2×)
same,T/C,[1],133 and 141 % of control
same,T/C,"dose: 12.5 mg/kg/injection, schedule: Q01DX009 (ip), vehicle: saline with Tween-80",133 % of control
same,survivor count,[9],3 of 6
same,survivor count,"dose: 50.0 mg/kg/injection, schedule: Q01DX001 (ip), vehicle: saline",1 of 6 and 5 of 6
same,survivor count,"dose: 100.0 mg/kg/injection, schedule: Q01DX001 (ip), vehicle: saline",1 of 6
same,survivor count,"dose: 200.0 mg/kg/injection, schedule: Q01DX001 (ip), vehicle: saline",0 of 6
[N-]=[N+]=[N-],survivor count,"dose: 12.0 mg/kg/injection, schedule: Q01DX009 (ip), vehicle: saline with Tween-80",3 of 6
same,survivor count,"dose: 12.5 mg/kg/injection, schedule: Q04DX003 (ip), vehicle: saline",6 of 6
same,survivor count,"dose: 25.0 mg/kg/injection, schedule: Q04DX003 (ip), vehicle: saline",1 of 6
same,survivor count,"dose: 50.0 mg/kg/injection, schedule: Q04DX003 (ip), vehicle: saline",0 of 6
COc1ccc(C(c2cc3c(cc2O)OCO3)N2CCOCC2)cc1 (stereo unspecified),survivor count,"dose: 480.0 mg/kg/injection, schedule: Q01DX005 (ip), vehicle: saline with Tween-80",4 of 6
CCC(=[Se])N(CC)CC,survivor count,[11],0 of 6
same,survivor count,[12],5 of 6
same,survivor count,[13],0 of 6
same,survivor count,[14],0 of 6
same,survivor count,[15],0 of 6
same,survivor count,"dose: 50.0 mg/kg/injection, schedule: Q01DX009 (ip), vehicle: Klucel (hydroxypropylcellulose) (HPC)",0 of 6
same,survivor count,"dose: 100.0 mg/kg/injection, schedule: Q01DX009 (ip), vehicle: Klucel (hydroxypropylcellulose) (HPC)",0 of 6
same,survivor count,[8],0 of 6
Cc1cc(C)cc(C(N)=O)c1,survivor count,"dose: 400.0 mg/kg/injection, schedule: Q04DX003 (ip), vehicle: saline",3 of 6
O=C(c1ccc(Cl)cc1)N1CCN(C(=O)N2CCN(C(=O)N3CCN(C(=O)c4ccc(Cl)cc4)CC3)CC2)CC1,survivor count,"dose: 60.0 mg/kg/injection, schedule: Q01DX005 (ip), vehicle: saline with Tween-80",6 of 6
same,survivor count,"dose: 120.0 mg/kg/injection, schedule: Q01DX005 (ip), vehicle: saline with Tween-80",6 of 6
CN=C(c1ccc(NC(=O)c2cc(N)cc(C(=O)Nc3ccc(C(=NC)N(C)C)cc3)c2)cc1)N(C)C,survivor count,"dose: 25.0 mg/kg/injection, schedule: Q01DX005 (ip), vehicle: Klucel (hydroxypropylcellulose) (HPC)",0 of 6
same,survivor count,"dose: 50.0 mg/kg/injection, schedule: Q01DX005 (ip), vehicle: Klucel (hydroxypropylcellulose) (HPC)",0 of 6
same,survivor count,"dose: 100.0 mg/kg/injection, schedule: Q01DX005 (ip), vehicle: Klucel (hydroxypropylcellulose) (HPC)",0 of 6
same,survivor count,"dose: 200.0 mg/kg/injection, schedule: Q01DX005 (ip), vehicle: Klucel (hydroxypropylcellulose) (HPC)",0 of 6
S=c1sscc1-c1ccc2ccccc2c1,survivor count,"dose: 100.0 mg/kg/injection, schedule: Q04DX003 (ip), vehicle: saline with Tween-80",6 of 6
O=c1cc2n(c(=O)n1Cc1ccccc1)CCC2,survivor count,"dose: 50.0 mg/kg/injection, schedule: Q01DX005 (ip), vehicle: saline with Tween-80",3 of 6
same,survivor count,"dose: 100.0 mg/kg/injection, schedule: Q01DX005 (ip), vehicle: saline with Tween-80",0 of 6
same,survivor count,[7],0 of 6
